{
  "sequences": {"note": "Amino acid sequences for entries named in this document (tags omitted). Residues count along the entry.", "UniProt Q14160, residues 833-965": "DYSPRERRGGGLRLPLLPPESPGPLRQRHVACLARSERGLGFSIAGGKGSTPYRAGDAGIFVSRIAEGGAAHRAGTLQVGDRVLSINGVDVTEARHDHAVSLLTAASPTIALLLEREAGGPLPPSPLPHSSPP"},
  "source": "paper doi:10.1101/2022.10.12.511839",
  "about": "(bioRxiv, 2022)",
  "binders": {"B1": {"name": "HPV51 E6 C-terminal PBM 10-mer peptide (RTRQRNETQV) (peptide)", "peptide": "RTRQRNETQV"}},
  "molecular_target": "human Scribble PDZ2 domain (833-965) (human) (UniProt Q14160)",
  "test": "ITC",
  "note": "Results are given in words; binding and its absence hold for the method and conditions named. Some results given as binding are weak or reduced against the parent protein; the word gives no strength.",
  "data": [
    {"binder": "B1", "values": [
      {"measurement": "binding", "result": "binds weakly"}
    ]}
  ]
}
